We go through 1 molecule from publication PMC11464796.

Protein sequences, listed by entry. Tags and fused reporters are not part of them. Lines headed by an entry give the natural chain unless they say otherwise; changes in a name come on top.
UniProt A0QW02: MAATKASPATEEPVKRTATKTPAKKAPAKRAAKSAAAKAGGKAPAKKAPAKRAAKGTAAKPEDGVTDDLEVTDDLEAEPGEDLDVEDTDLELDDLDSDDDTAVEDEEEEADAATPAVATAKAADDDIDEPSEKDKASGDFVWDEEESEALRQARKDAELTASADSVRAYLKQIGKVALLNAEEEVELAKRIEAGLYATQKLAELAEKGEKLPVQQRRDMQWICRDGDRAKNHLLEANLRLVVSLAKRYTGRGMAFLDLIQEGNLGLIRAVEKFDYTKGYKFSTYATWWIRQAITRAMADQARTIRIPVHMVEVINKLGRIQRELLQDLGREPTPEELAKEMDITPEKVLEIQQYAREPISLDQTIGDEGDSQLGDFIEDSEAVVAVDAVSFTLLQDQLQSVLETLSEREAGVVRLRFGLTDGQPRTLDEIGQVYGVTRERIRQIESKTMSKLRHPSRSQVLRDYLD

Assay [1] addresses Msm σ^A-6xHis (for cryo-EM) (Mycobacterium smegmatis) (UniProt A0QW02). The assay can be described thus: cryo-EM structure; RNAP, HelD, σ^A, RbpA and upstream fork promoter DNA (TK71/72) mixed 1:3:3:5:5 at 4 °C, SEC-purified (20 mM Tris-HCl pH 7.8, 150 mM NaCl, 10 mM MgCl2, 1 mM DTT); both purified.
Assay [2] shares this target. The assay is described as follows: cryo-EM structure; RNAP core, HelD, σ^A, RbpA mixed 1:3:3:5 at 4 °C, SEC-purified (Superose 6 Increase; 20 mM Tris-HCl pH 7.8, 150 mM NaCl, 10 mM MgCl2, 1 mM DTT); no DNA; both purified.

Results are given in words; binding and its absence hold for the method and conditions named. Binding can be weak; no strength is given. Where a sequence is shown, tags or fusion partners need not be part of it.

B1: Msm HelD, wild type, recombinant tag-less (enzyme, UniProt A0QUE0 1-736)
chain: MSGRDYEDELQSERDYVAGLYARLDAERAQSQRRYAAALREHGGTAVERDAEVRALAKDIARLNVADNGLCFGRLDTLDDARLYIGRLGIFDRDNDFEPLLLDWRAPMARPFYVATAANPENMRRRRQFHTLGRKVVDFTDEILGRPTGAEHDATNDAALLAAVNAPRGEGMRDIVATIQAEQDQVIRLDHTGVLVIEGGPGTGKTVVALHRVAYLLYTYRKQMERHGVLVVGPTPAFLDHIGRVLPSLGESDAVFMTPGDFVPGLHVTAEDTPEAAEVKGSLKILDVLKAAVADRQELPSEPIPIDLSDVTMRIDAETAKWARDEARKTGLPHNEARAEFVDVVTYVVTERAVARIGRGWLTRDDKHAWEKMRADVVGELEDHEQFNAALDALWPILTPEDVLAQLYTSHERLRAAGAPECLWRADGEAWTVSDVPLLDELVDLLGRNKAADEAAERERREEEAYAAGVLDLMVDREDLMDDEDHLLAQDLIDAEELADRFKEQDNRELSERAAADREWTYGHVVVDEAQELSEMDWRLLMRRCPRRSFTIVGDLAQRRSPAGARSWGAMLDSYVPGRWVYKSLSVNYRTPAEIMAVAAAVLAEFAPDATPPDSVRACGVAPWARQVTDDDIASAIAEFVSEEAGREGTSVVIGPPDVPGTVPPSETKGLEFDAVLVVEPERILADGPRGAAELYVALTRATQRLGVLYRDALPQALAGLAEGDAAATVEQRTSA
As for B1, the binding entry in assay [1] and in assay [2] was “binds” in each case.
